Screening data, single-dose tests

Chains of the proteins cited; added tags and fusions are not shown.
UniProt P9WFT3, whole entry: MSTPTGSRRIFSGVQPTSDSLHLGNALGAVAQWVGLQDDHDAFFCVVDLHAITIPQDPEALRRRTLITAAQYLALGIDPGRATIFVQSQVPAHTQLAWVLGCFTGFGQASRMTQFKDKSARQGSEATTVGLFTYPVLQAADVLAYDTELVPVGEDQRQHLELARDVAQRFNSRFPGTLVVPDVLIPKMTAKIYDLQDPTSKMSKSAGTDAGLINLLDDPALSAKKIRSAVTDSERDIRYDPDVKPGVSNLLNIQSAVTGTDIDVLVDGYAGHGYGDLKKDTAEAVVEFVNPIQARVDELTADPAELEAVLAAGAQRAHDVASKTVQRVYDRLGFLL
UniProt P9WPC5, whole entry: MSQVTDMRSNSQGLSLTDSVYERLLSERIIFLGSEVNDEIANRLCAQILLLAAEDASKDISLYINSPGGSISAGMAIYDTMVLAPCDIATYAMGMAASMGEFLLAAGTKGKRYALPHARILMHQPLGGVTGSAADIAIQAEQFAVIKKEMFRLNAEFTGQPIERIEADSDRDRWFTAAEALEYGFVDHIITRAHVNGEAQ
UniProt P9WPC3, whole entry partner: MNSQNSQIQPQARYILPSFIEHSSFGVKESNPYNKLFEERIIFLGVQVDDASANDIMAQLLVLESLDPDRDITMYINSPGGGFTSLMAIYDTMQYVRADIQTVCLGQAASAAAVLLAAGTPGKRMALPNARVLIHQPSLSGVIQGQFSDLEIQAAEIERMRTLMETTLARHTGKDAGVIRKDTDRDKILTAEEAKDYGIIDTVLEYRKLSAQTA

From ChEMBL document CHEMBL3988442, “University of Dundee, Small-Polar-MMV Screening Library” (2021).

Each number is a percent effect as filed. The record does not define 0% and 100%; most values in the screen are far below 50% and negative numbers occur (in some assays of this library far below -100). This is an unselected part of the compounds tested. A dash means the value is not listed here; it may have been measured.

MtTrpRS: 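Tryptophan-tRNA ligase, Mycobacterium tuberculosis (UniProt P9WFT3). Enzyme assay of tryptophanyl-tRNA synthetase; the read-out is not stated. Concentration: 10 µM. Direction is not recorded; retested compounds ran higher, which suggests that high means inhibition. Size under these conditions: about 65,000 compounds, about 64 of them at 50% or above in at least one test.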
ClpP1P2: 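ClpP1P2, Mycobacterium tuberculosis (UniProt P9WPC5 and UniProt P9WPC3). Protease assay of ClpP1P2, read by the AMC dye that it sets free. Concentration: 50 µM. Direction is inferred from only a few compounds that gave an IC50; most scored high, so higher reads as stronger inhibition. Most other retested compounds had strongly negative values. About 69,000 compounds were tested under these conditions; 0.015% (about 10) showed 50% or more at least once.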

| structure | MtTrpRS | ClpP1P2 |
|---|---|---|
| `CCn1ccnc1CNC1CC(=O)N(CCc2cccc(Cl)c2)C1` (stereo not drawn) | 1.472% | -3.466% |
| `CCN1CCC2(CC1)CC(NC(=O)c1csnn1)c1ccccc1O2` (stereo not drawn) | -9.24% | 8.019% |
| `CC(CN1CCOCC1)NC(=O)Nc1cccnc1-n1cccn1` (stereo not drawn) | -6.576% | -5.345% |
| `CC(C)n1cc(CN2CCCN(C(=O)COC3CCCC3)CC2)cn1` | -1.163% | -0.2506% |
| `CC(C)c1ncc2c(n1)CN(Cc1nc(-c3ccco3)no1)CC2` | -3.488% | -19.32% |
| `CC(C)NC(=O)NC(C)c1ccc(-c2ccncc2)cc1` (stereo not drawn) | -6.226% | -4.578% |
| `O=C(c1ncn2c1CNS(=O)(=O)c1ccccc1-2)N1CCCCCC1` | -0.6347% | 13.23% |
| `CN1CCN(c2ccc(NC(=O)c3cccs3)c(C(F)(F)F)c2)CC1` | 2.621% | 4.313% |
| `CCc1ccc2nc(-c3cnn(C)c3)cc(C(=O)N3CCCC3)c2c1` | -0.07127% | -25.62% |
| `COc1cc2c(cc1CNC(=O)Cc1ccc(C)nc1)OC(C)C2` (stereo not drawn) | -2.089% | -5.822% |
| `CC1CCCN(C(=O)NCCCn2cncn2)C1` (stereo not drawn) | -0.3139% | -20.18% |
| `COc1cccc([C@H]2CN(CCCS(=O)(=O)N(C)C)C[C@@H]2N)c1` | -2.651% | 0.1378% |
| `O=C1CN([C@@H]2CC[C@@H](NS(=O)(=O)c3ccc(F)cc3)[C@H]2O)CCN1` | -1.11% | 2.211% |
| `CC(c1ccco1)N(C(=O)NCc1ccon1)C1CC1` (stereo not drawn) | 6.795% | 2.433% |
| `c1cncc(OCc2noc3c2CN(Cc2ccco2)CC3)c1` | -0.4149% | 13.43% |
| `Cc1ccc(CN(Cc2c[nH]cn2)C2CC(C)(C)NC(C)(C)C2)o1` | 4.766% | -10.34% |
| `COCCN1C(=O)CCC12CCN(C(=O)CNC(C)=O)CC2` | -3.814% | -4.768% |
| `NC(=O)CCn1cc(CNCCCc2ccccc2O)c2ccccc21` | 3.374% | 0.3602% |
| `COCCN1CCC(NC(=O)C(C)C)CC1` | 0.1347% | -16.36% |
| `CN(C)c1nccc(N(C)Cc2ncnn2C)n1` | 0.5711% | -11.8% |
| `CNc1ccc(C2CN(c3cc(C)nc(N)n3)CCO2)nc1` (stereo not drawn) | -5.548% | -11.4% |
| `Cc1cc(C)c(CNC(=O)NCc2ccc3c(c2)CCC3)c(=O)[nH]1` | -1.73% | 7.896% |
| `Cn1cccc1C(=O)N1C[C@H]2CN(Cc3cccnc3)C[C@H]2C1` | -6.395% | -13.33% |
| `CS(=O)(=O)N1CCN(Cc2c(O)ccc3oc4c(c23)CCCC4)CC1` | 3.905% | 10.48% |
| `COc1cccc(CN2CCC3(CC2)CCN(c2ncc(F)cn2)C3)c1` | -1.339% | -2.362% |
| `N#Cc1c(SCCN2CCCCCC2)sc2c(O)cc(O)nc12` | - | 17.79% |
| `COCCN(C)C[C@@H]1CCC[C@@H]2CN(Cc3ccc(OC)nc3)C[C@@H]21` | -3.738% | 1.568% |
| `CN1CCCC1c1cncc(C(=O)NCC2CC2)n1` (stereo not drawn) | -7.525% | 12.74% |
| `Cc1nc(N2CCN3CCCCC3C2)nc2cc(S(C)(=O)=O)ccc12` (stereo not drawn) | 0.2981% | -25.61% |
| `NC(=O)NCC(=O)N1CCC2(CC1)c1ccccc1CC2O` (stereo not drawn) | 4.565% | -1.26% |
| `O=C(NCc1cccs1)NCC1(O)CCc2ccccc2C1` (stereo not drawn) | 0.343% | -5.303% |
| `CN(C)c1cc2c(nn1)CCN(C(=O)C1CCCc3ccccc31)C2` (stereo not drawn) | -4.9% | -9.857% |
| `Cc1nc(CN2CCC3(CCN(Cc4cnn(C)c4)C3)C2=O)cs1` (stereo not drawn) | -5.231% | -17.07% |
| `O=C1NC2(CCN(Cc3cccnc3)CC2)CC1c1cccnc1` (stereo not drawn) | -2.441% | 6.71% |
| `CCn1c(CN2CCN(CCOC)CC2)nc2c(F)cccc21` | 2.323% | -28.21% |
| `COc1cc(C(C)=O)ccc1OC12CCCN(CC1)C2` (stereo not drawn) | -1.877% | 9.09% |
| `CNc1ccc(Cl)cc1C(=O)N1CCC(Cn2cc(CN)nn2)CC1` | 0.4666% | -12.95% |
| `Cc1c[nH]c(CN2CCCCC2CCN(C)C)c(C)c1=O` (stereo not drawn) | -1.718% | -6.111% |
| `O=C(Cc1ccsc1)N1CCC[C@@H]1Cn1c(=O)oc2ccccc21` | 0.06528% | -17.39% |
| `Cc1ccc(C2CSCCN2CCS(C)(=O)=O)cc1` (stereo not drawn) | -3.366% | -16% |
| `COCC(=O)N1CCN(C(=O)Cc2cccs2)[C@H]2CS(=O)(=O)C[C@H]21` | -2.349% | 9.558% |
| `Cc1cccn2cc(CN3CCC(N4CCN(C)C4=O)CC3)nc12` | -0.5442% | -2.801% |
| `Cc1cc(C(=O)O)ccc1NS(=O)(=O)c1c(C)nn(C(C)C)c1C` | -2.374% | 5.704% |
| `O=C(O)[C@]12CCCN(Cc3cccnc3)[C@@H]1CCN(c1cnccn1)C2` | 1.051% | 6.344% |
| `CS(=O)(=O)N1CCOCC2(CN(Cc3ccsc3)CCO2)C1` (stereo not drawn) | 0.08224% | -2.112% |
| `O=C(O)c1ccccc1-n1cc(CN2CCOC(c3cc[nH]n3)C2)cn1` (stereo not drawn) | 0.2604% | 13.81% |
| `Cc1nc2ccnn2c(C)c1CCC(=O)N1CCN(CCO)CC1` | -3.123% | -16.77% |
| `CC(Nc1nccc(CCC(F)(F)F)n1)c1nc(-c2ccccn2)no1` (stereo not drawn) | 3.943% | -9.044% |
| `CCc1n[nH]c(C2CN(C(=O)c3cnc[nH]3)CCO2)n1` (stereo not drawn) | -2.424% | -2.611% |
| `Cc1cn2c(n1)CCC(NC(=O)c1ccc(CS(C)(=O)=O)o1)C2` (stereo not drawn) | -1.572% | 5.417% |
| `Cc1n[nH]c(C)c1-c1cnc(CC2CCN(C(C)C)CC2)cn1` | 4.348% | 3.529% |
| `c1cc(CNCC2CNc3ccnn3C2)cc(OC2CCCCC2)n1` (stereo not drawn) | -1.846% | 5.188% |
| `CC(=O)NCCNC(=O)c1nc(C2CC2)n(-c2ccccc2Cl)n1` | -0.143% | -14.36% |
| `O=C1NCC2(CCCN(C(=O)Nc3ccc4occc4c3)CC2)O1` (stereo not drawn) | -1.417% | -8.35% |
| `Cc1csc(CN2C[C@@H]3CN(CC4CCOCC4)CCO[C@@H]3C2)n1` | -6.787% | -0.3385% |
| `COC(=O)C1CCN(C(=O)c2nnc3ccc(Cl)cc3n2)CC1` | -0.3285% | -1.498% |
| `N#Cc1ccccc1C(=O)Nc1cccc(CN2CCC(CO)CC2)c1` | -2.532% | 20.96% |
| `CCN(CC1CCOC1)C(=O)c1cc(F)ccc1N1CCN(C)CC1` (stereo not drawn) | 68.16% | -7.469% |
| `NC(CC1CCCC1)c1ccccc1` (stereo not drawn) | 2.094% | -10.94% |
| `O=c1n(Cc2ccc(F)cc2)nc2ncccn12` | -0.1898% | 17.03% |
| `CC(C)c1noc(CN(C)C(=O)c2ncn[nH]2)n1` | 3.526% | 7.901% |
| `Cc1ccc2c(c1)C(=O)NCC1(CCN(C(=O)c3ccnn3C)CC1)O2` | - | -3.542% |
| `COCCOc1ccnc(-c2noc([C@@H]3CCCN3CC(C)C)n2)c1` | -0.07588% | 4.161% |
| `O=C(NC1CCCN(c2ccc(OC(F)F)cc2)C1)c1c[nH]nn1` (stereo not drawn) | 15.38% | -5.964% |

For reference, 7 entries once more:

structure,MtTrpRS,ClpP1P2
COc1cccc([C@H]2CN(CCCS(=O)(=O)N(C)C)C[C@@H]2N)c1,-2.651%,0.1378%
Cc1nc(N2CCN3CCCCC3C2)nc2cc(S(C)(=O)=O)ccc12 (stereo not drawn),0.2981%,-25.61%
CC(C)NC(=O)NC(C)c1ccc(-c2ccncc2)cc1 (stereo not drawn),-6.226%,-4.578%
CC(Nc1nccc(CCC(F)(F)F)n1)c1nc(-c2ccccn2)no1 (stereo not drawn),3.943%,-9.044%
Cc1cc(C(=O)O)ccc1NS(=O)(=O)c1c(C)nn(C(C)C)c1C,-2.374%,5.704%
Cc1cc(C)c(CNC(=O)NCc2ccc3c(c2)CCC3)c(=O)[nH]1,-1.73%,7.896%
CS(=O)(=O)N1CCOCC2(CN(Cc3ccsc3)CCO2)C1 (stereo not drawn),0.08224%,-2.112%